Measurements: doi:10.1101/2022.04.15.488344 (bioRxiv, 2022)
These are yes or no findings as the source states them, for the method shown. Some results given as binding are weak or reduced against the parent protein; the word gives no strength. Tags and fused reporters may be left off the sequences shown.

Chains of the proteins cited; added tags and fusions are not shown.
UniProt P03372, whole entry: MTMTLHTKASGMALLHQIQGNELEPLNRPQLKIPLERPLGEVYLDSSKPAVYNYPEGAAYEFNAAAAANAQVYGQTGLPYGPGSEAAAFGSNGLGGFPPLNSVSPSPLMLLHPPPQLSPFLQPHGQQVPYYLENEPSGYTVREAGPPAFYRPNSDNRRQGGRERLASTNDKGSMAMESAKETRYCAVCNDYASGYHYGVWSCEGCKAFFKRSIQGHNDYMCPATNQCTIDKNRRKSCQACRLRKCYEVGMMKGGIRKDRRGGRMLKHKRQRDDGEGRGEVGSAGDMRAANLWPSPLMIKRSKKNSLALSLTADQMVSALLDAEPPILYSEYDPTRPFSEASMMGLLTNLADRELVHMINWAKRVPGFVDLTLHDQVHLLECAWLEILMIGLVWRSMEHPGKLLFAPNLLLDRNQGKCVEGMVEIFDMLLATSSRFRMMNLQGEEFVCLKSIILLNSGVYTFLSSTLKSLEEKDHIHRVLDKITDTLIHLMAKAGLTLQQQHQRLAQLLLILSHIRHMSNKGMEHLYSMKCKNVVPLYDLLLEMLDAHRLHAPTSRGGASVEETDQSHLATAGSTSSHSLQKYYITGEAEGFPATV

Molecular target: T1, αII-Gal4 fusion (peptide αII)
T1 sequence (peptide): SSLTSRDFGSWYASR
Experiment: two-hybrid

binding: binds
Substance: ERα-VP16 fusion (from UniProt P03372 1-595) (receptor)
